Source: ChEMBL document CHEMBL3988442, “University of Dundee, Small-Polar-MMV Screening Library” (2021).

By UniProt entry, the sequences of proteins in these tests, tags left out.
UniProt P9WNZ1, whole entry: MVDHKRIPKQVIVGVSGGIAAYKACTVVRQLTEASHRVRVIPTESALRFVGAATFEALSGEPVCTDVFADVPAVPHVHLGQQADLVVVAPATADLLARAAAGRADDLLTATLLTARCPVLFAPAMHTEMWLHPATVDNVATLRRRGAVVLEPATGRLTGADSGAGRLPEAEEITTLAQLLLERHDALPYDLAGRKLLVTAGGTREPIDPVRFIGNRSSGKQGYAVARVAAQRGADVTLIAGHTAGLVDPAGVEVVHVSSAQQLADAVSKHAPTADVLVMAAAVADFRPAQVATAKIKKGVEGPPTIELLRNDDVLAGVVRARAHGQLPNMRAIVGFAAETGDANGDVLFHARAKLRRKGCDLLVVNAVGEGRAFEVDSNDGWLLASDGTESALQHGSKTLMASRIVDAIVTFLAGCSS

Each number is a percent effect as filed. The controls that fix the scale are not given in the record; negative values are as filed. The compounds are a random part of those screened. A dash means the value is not listed here; it may have been measured.

Toxoplasma: 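Assay of Toxoplasma gondii numbers, read through their beta-galactosidase reporter with a colour substrate. Tested at 10 µM. Higher reads as fewer parasites (inferred from which compounds were picked for retests). About 67,000 compounds were tested under these conditions; 0.38% (about 260) showed 50% or more at least once.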
CoaBC: 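Coenzyme A biosynthesis protein CoaBC, Mycobacterium tuberculosis (UniProt P9WNZ1). Enzyme assay of CoaBC with a phosphate dye (Biomol Green) read at 650 nm. Compounds at 30 µM. Direction is inferred from only a few compounds that gave an IC50; most scored high, so higher reads as stronger inhibition. Most strong results did not repeat in a second test. About 67,000 compounds were tested under these conditions; 0.06% (about 40) showed 50% or more at least once.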

structure | Toxoplasma | CoaBC
CCC(O)CN1CCN(C(=O)c2cnn(-c3ccccc3F)c2)CC1 (configuration not stated) | 5.116 | 3.306
Cc1ccccc1CN1CC[C@H]2C[C@H](C(=O)N(C)C)O[C@H]2C1 | - | 0.8403
O=C(c1ccno1)N1CC[C@@H]2O[C@H](COCCN3CCCC3)CC[C@@H]21 | - | -5.477
CCCn1cc(S(=O)(=O)N[C@H]2CN(CCO)C[C@@H]2C2CC2)cn1 | -11.86 | -8.402
COc1ncc(NCc2cc(C#N)cs2)cc1C(N)=O | -1.836 | 1.146
CCC[C@@H]1CN(C(=O)c2cc3ccccc3cc2O)C[C@H]1N(C)C | -52.34 | 11.65
CC(C)c1noc(C2CC(=O)N(CCN(C)C)C2)n1 (configuration not stated) | -20.45 | 1.533
CN(Cc1cc(C(C)(C)C)n[nH]1)C(=O)CCC(=O)NC1CCCC1 | 10.58 | 0.3699
O=S(=O)(c1ccccc1)N1C[C@@H]2CCN[C@@H]2C1 | - | 2.29
[H][C@@]12CN(C)CCO[C@]1([H])CN(Cc1nc(C)cs1)C2 | -32.84 | -
O=C(c1ccn(-c2cccc(F)c2)n1)N1CCN(CCO)CC1 | -48.89 | -2.959
OC[C@H]1CC[C@]2(CC1)CN(Cc1ccsc1)Cc1ccccc1O2 | - | 8.959
Cc1ccc(-c2nc(CN3CCCC(Cn4cncn4)C3)no2)cc1 (configuration not stated) | -0.4449 | 1.845
CCn1ccc(NC(=O)CN2C(=O)CC(C)(C)c3ccccc32)n1 | -34.36 | -0.9639
CO[C@H]1CNC[C@@H]1NC(=O)CCc1nc(-c2ccccc2)no1 | 0.5674 | 5.196
CCn1nccc1CNC(=O)C(C)n1cc2c(n1)c(C)nn2C (configuration not stated) | -6.216 | 4.172
O=C(Cc1ccc2c(c1)CCC2)NC1CCN(Cc2ccccc2)CC1 | 4.469 | 17.06
Cn1nc(Br)nc1Sc1ccccc1NC(=O)C1CC1 | -2.383 | -2.24
[H][C@@]12CCN(C[C@@H]1CN1CCCCC1)[C@@H](CNC(=O)Nc1ccsc1)C2 | 0.1287 | -
Cc1ccc(Nc2ncnc3c2CCN(CC2CCOC2)CC3)cc1 (configuration not stated) | - | 3.462
CCOc1ccc2oc(-c3cn(C)nc3C)c(O)c(=O)c2c1 | -0.7392 | 0
COCC(=O)NC[C@H]1CC[C@H](c2nnc(-c3cccnc3)o2)CC1 | 4.264 | 3.03
CN(C)C(=O)c1ccccc1NCCCOc1cccc(C#N)c1 | -19.55 | -2.41
CC(C)Cn1cc(C(=O)NC2CCS(=O)(=O)C2)c2ccccc2c1=O (configuration not stated) | -23.55 | 0
COc1ccc(NC(C)c2ccc(C#N)cc2)cc1N1CCCC1=O (configuration not stated) | 6.195 | 4.862
Cc1ccc(-n2cnnn2)cc1NCC(=O)Nc1ccccc1Cl | 6.883 | -0.8963
CS(=O)(=O)N1CCC2(CCN(C(=O)c3cccnc3)CC2)C1.O=C(O)C(F)(F)F | 12.87 | -
COc1cc(C)nc(N2CCN(C(=O)CNC(C)(C)C)CC2)n1 | -24.74 | 4.663
CC(=O)NCCOc1cccc(Br)c1 | -9.464 | -0.7371
CCN(CC)C(C)CNC(=O)c1cccnc1Oc1cccnc1 (configuration not stated) | 12.04 | -4.645
COCCN(CCOC)C(=O)Nc1cc(C(F)(F)F)c[nH]c1=O | 3.577 | 2.477
O=c1cc(Cn2ccnc2)nc2n1CCCN(Cc1ccco1)C2 | -0.8368 | 3.074
O=C(O)CCn1nc(C(F)(F)F)c(Cl)c1C1CC1 | 1.529 | -0.3797
Cc1nn(C)c(C)c1CN1CCCC1c1nccc(CN(C)C)n1 (configuration not stated) | -12.33 | 4.902
Cc1ccccc1CN1CCN(C(=O)c2ccn(C(C)(C)C)c2)CC1 | - | -2.309
CC(C)(C)c1n[nH]c(C2CN(CCc3cccs3)CCO2)n1 (configuration not stated) | 15.73 | -6.434
COc1cc(NC(=O)C2CC(=O)N(c3cccc(F)c3)C2)ncn1 (configuration not stated) | -7.851 | -50.11
Cc1nc(COCC2CN(C(N)=O)Cc3nccn3C2)cs1.O=C(O)C(F)(F)F (configuration not stated) | 6.685 | -
O=S(=O)(C1CC1)N1CCOC2(CCCN(Cc3ccccn3)C2)C1 (configuration not stated) | - | 4.39
Cc1cc(CNC(=O)c2ccc(C(C)N3CCCCC3)o2)[nH]n1 (configuration not stated) | 10.88 | 17.85
Cc1nc(N)cc(NCc2csc(N(C)C)n2)n1 | 16.13 | 5.276
Cc1cc(NC(=O)CNC(C)(C)c2ccc3c(c2)OCO3)on1 | 1.711 | 4.538
NCCc1nc(N(Cc2cncs2)C2CC2)c2ccccc2n1 | -9.993 | -2.703
[H][C@@]12CN(Cc3cccc(CN4CCOCC4)c3)C[C@]1(C(=O)O)CNC2=O | -4.33 | -
CCOC(=O)N1CCN(c2nc(NCCCO)c3ccccc3n2)CC1.Cl | 11.24 | -
CC(=O)NC1(C(=O)N2CCC(Nc3cccnn3)CC2)CCCCC1 | 8.403 | 1.195
CC(CN1CCOCC1)N(Cc1ccccc1)Cc1ccncc1 (configuration not stated) | 0.716 | 4.274
COCCN1CC[C@@H](O)[C@@H]1Cc1ccccc1 | - | 2.557
O=c1[nH]c2c(c(=O)n1C1CCCCC1)CCC2Nc1ccccc1Cl (configuration not stated) | 20.32 | -11.17
CCc1noc(CN(C)C(=O)c2ccnc(OC3CCC3)c2)n1 | -2.402 | 2.885
Cc1nc(N2CC[C@@H](NC(=O)c3cnccn3)[C@H](O)C2)c2ccsc2n1 | -1.5 | 2.772
CCc1nc(CNC2CCN(c3ccc(OC)cc3)CC2)cs1 | -9.508 | 1.683
Cc1ccccc1C1(C(=O)NCCN2CCC(C)CC2)CCOCC1 | -7.042 | 0.2632
CNC(=O)c1cc(C)nc(C2(C)CCCN2c2cc(C)ncn2)n1 (configuration not stated) | -21.65 | -0.2628
O=C(CCc1ccc2c(c1)OCO2)Nc1cccnc1-n1cncn1 | -2.394 | -21.43
N#Cc1cn(C2CC2)c(=O)n(Cc2ncc(-c3cccs3)o2)c1=O | 3.936 | 6.818

For reference, 3 entries once more:

* Cc1ccc(-c2nc(CN3CCCC(Cn4cncn4)C3)no2)cc1 (configuration not stated) : Toxoplasma: -0.4449%; CoaBC: 1.845%
* CC(C)Cn1cc(C(=O)NC2CCS(=O)(=O)C2)c2ccccc2c1=O (configuration not stated) : Toxoplasma: -23.55%; CoaBC: 0%
* CCn1ccc(NC(=O)CN2C(=O)CC(C)(C)c3ccccc32)n1 : Toxoplasma: -34.36%; CoaBC: -0.9639%